PubChem BioAssay AID1259308, NCATS | 2017
Aim: 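Knock-downs that increase output of a recombinant reporter protein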 (primary screen). Cells: human HEK293 embryonic kidney cells stably expressing firefly luciferase (HEK-CMV-Luc2-Hygro). Knock-down reagent: single siRNA against human genes, 0.8 pmol siRNA per well. Timing: 72 h. Read-out: 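Luciferase light (ONE-Glo) measured on one replicate plate set and viability (CellTiter-Glo) on the other, scaled to a negative control siRNA, with robust z-scores and luciferase per cell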. Scale: total luciferase, z-score and total luciferase, % of control: higher = more reporter protein produced. Active means: 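Active when the median/MAD z-score for overall luciferase is greater than 3; a gene was taken forward for validation with new siRNAs if at least two of its three siRNAs passed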. Meaning of the calls: active = raised luciferase; inactive = no rise.
The deposit covers about 59,000 reagents; shown is a random part of them. In the full data, about 1,510 (2.6%) were called active. 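Calls use total luciferase alone and ignore viability, so some active siRNAs may act by altering cell number.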 Reagents against one gene are numbered here. Further read-outs or replicates are left out here. No sequences are given here.

Gene	siRNA no.	total luciferase, z-score	total luciferase, % of control	Call
ZFP28 (ZFP28 zinc finger protein)	1	-0.945	63.1	inactive
ZFP28 (ZFP28 zinc finger protein)	2	1.28	107	inactive
ZFP28 (ZFP28 zinc finger protein)	3	1.42	110	inactive
PINK1 (PTEN induced kinase 1)	1	-1.28	56.5	inactive
PINK1 (PTEN induced kinase 1)	2	1.37	109	inactive
PINK1 (PTEN induced kinase 1)	3	2.22	126	inactive
DCLRE1B (DNA cross-link repair 1B)	1	0.0254	82.4	inactive
DCLRE1B (DNA cross-link repair 1B)	2	0.78	97.4	inactive
DCLRE1B (DNA cross-link repair 1B)	3	-0.223	77.5	inactive
PLVAP (plasmalemma vesicle associated protein)	1	0.0254	82.4	inactive
PLVAP (plasmalemma vesicle associated protein)	2	3.56	153	active
PLVAP (plasmalemma vesicle associated protein)	3	0.216	86.2	inactive
CSTF3 (cleavage stimulation factor subunit 3)	1	-0.129	79.3	inactive
CSTF3 (cleavage stimulation factor subunit 3)	2	-0.315	75.6	inactive
CSTF3 (cleavage stimulation factor subunit 3)	3	1.07	103	inactive
HTATSF1P2 (HIV-1 Tat specific factor 1 pseudogene 2)	1	-0.000217	81.9	inactive
HTATSF1P2 (HIV-1 Tat specific factor 1 pseudogene 2)	2	0.0956	83.8	inactive
HTATSF1P2 (HIV-1 Tat specific factor 1 pseudogene 2)	3	-0.122	79.5	inactive
RIN2 (Ras and Rab interactor 2)	1	0.0936	83.7	inactive
RIN2 (Ras and Rab interactor 2)	2	-0.888	64.2	inactive
RIN2 (Ras and Rab interactor 2)	3	-0.751	67	inactive
MAG (myelin associated glycoprotein)	1	0.182	85.5	inactive
MAG (myelin associated glycoprotein)	2	-1.74	47.3	inactive
MAG (myelin associated glycoprotein)	3	-0.197	78	inactive
SPINK13 (serine peptidase inhibitor Kazal type 13)	1	1.65	115	inactive
SPINK13 (serine peptidase inhibitor Kazal type 13)	2	-0.221	77.5	inactive
SPINK13 (serine peptidase inhibitor Kazal type 13)	3	-0.129	79.3	inactive
SMIM14 (small integral membrane protein 14)	1	2.31	128	inactive
SMIM14 (small integral membrane protein 14)	2	-0.176	78.4	inactive
SMIM14 (small integral membrane protein 14)	3	-1.49	52.2	inactive

Sorted by “total luciferase, % of control” (low to high): 6 of the entries above
Gene	siRNA no.	total luciferase, z-score	total luciferase, % of control	Call
MAG (myelin associated glycoprotein)	2	-1.74	47.3	inactive
RIN2 (Ras and Rab interactor 2)	2	-0.888	64.2	inactive
RIN2 (Ras and Rab interactor 2)	3	-0.751	67	inactive
HTATSF1P2 (HIV-1 Tat specific factor 1 pseudogene 2)	3	-0.122	79.5	inactive
RIN2 (Ras and Rab interactor 2)	1	0.0936	83.7	inactive
MAG (myelin associated glycoprotein)	1	0.182	85.5	inactive

The listing continues.
Gene	siRNA no.	total luciferase, z-score	total luciferase, % of control	Call
NKAIN1 (sodium/potassium transporting ATPase interacting 1)	1	1.85	119	inactive
NKAIN1 (sodium/potassium transporting ATPase interacting 1)	2	0.295	87.8	inactive
NKAIN1 (sodium/potassium transporting ATPase interacting 1)	3	5.07	183	active
EGFR (epidermal growth factor receptor)	1	-0.193	78.1	inactive
EGFR (epidermal growth factor receptor)	2	1.47	111	inactive
EGFR (epidermal growth factor receptor)	3	0.249	86.8	inactive
USP25 (ubiquitin specific peptidase 25)	1	1.06	103	inactive
USP25 (ubiquitin specific peptidase 25)	2	-1.38	54.4	inactive
USP25 (ubiquitin specific peptidase 25)	3	2.05	123	inactive
NAE1 (NEDD8 activating enzyme E1 subunit 1)	1	-0.124	79.4	inactive
NAE1 (NEDD8 activating enzyme E1 subunit 1)	2	-0.267	76.6	inactive
NAE1 (NEDD8 activating enzyme E1 subunit 1)	3	-0.758	66.8	inactive
CSNK2A2 (casein kinase 2 alpha 2)	1	0.502	91.9	inactive
CSNK2A2 (casein kinase 2 alpha 2)	2	-0.0979	79.9	inactive
CSNK2A2 (casein kinase 2 alpha 2)	3	-0.535	71.3	inactive
TRAPPC2L (trafficking protein particle complex subunit 2L)	1	-0.691	68.2	inactive
TRAPPC2L (trafficking protein particle complex subunit 2L)	2	-2.06	40.8	inactive
TRAPPC2L (trafficking protein particle complex subunit 2L)	3	-0.645	69	inactive
UGGT2 (UDP-glucose glycoprotein glucosyltransferase 2)	1	-0.8	66	inactive
UGGT2 (UDP-glucose glycoprotein glucosyltransferase 2)	2	1.91	120	inactive
UGGT2 (UDP-glucose glycoprotein glucosyltransferase 2)	3	-0.0682	80.5	inactive
DLX5 (distal-less homeobox 5)	1	0.907	99.9	inactive
DLX5 (distal-less homeobox 5)	2	0.648	94.8	inactive
DLX5 (distal-less homeobox 5)	3	-0.262	76.7	inactive
HCN3	1	0.217	86.2	inactive
HCN3	2	-0.894	64.1	inactive
HCN3	3	1.52	112	inactive
